Experimental data published in article doi:10.1101/2022.09.10.507283.
No constants are given. Whether binding was seen depends on the method and setting. Binding seen in cells or lysates may run through a third protein. Some results given as binding are weak or reduced against the parent protein; the word gives no strength. For some of these results: Tags and fused reporters may be left off the sequences shown.

Amino acid sequences for entries named in this document (tags omitted). A change or cut given only in a name is not applied to a line headed by its entry.
UniProt P61586, whole entry, looked up, stated change not applied: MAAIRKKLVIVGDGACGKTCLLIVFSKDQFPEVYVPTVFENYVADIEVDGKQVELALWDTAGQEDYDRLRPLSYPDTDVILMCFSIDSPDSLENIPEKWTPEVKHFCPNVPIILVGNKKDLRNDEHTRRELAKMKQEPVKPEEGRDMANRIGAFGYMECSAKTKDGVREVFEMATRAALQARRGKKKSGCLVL
UniProt Q07157, whole entry: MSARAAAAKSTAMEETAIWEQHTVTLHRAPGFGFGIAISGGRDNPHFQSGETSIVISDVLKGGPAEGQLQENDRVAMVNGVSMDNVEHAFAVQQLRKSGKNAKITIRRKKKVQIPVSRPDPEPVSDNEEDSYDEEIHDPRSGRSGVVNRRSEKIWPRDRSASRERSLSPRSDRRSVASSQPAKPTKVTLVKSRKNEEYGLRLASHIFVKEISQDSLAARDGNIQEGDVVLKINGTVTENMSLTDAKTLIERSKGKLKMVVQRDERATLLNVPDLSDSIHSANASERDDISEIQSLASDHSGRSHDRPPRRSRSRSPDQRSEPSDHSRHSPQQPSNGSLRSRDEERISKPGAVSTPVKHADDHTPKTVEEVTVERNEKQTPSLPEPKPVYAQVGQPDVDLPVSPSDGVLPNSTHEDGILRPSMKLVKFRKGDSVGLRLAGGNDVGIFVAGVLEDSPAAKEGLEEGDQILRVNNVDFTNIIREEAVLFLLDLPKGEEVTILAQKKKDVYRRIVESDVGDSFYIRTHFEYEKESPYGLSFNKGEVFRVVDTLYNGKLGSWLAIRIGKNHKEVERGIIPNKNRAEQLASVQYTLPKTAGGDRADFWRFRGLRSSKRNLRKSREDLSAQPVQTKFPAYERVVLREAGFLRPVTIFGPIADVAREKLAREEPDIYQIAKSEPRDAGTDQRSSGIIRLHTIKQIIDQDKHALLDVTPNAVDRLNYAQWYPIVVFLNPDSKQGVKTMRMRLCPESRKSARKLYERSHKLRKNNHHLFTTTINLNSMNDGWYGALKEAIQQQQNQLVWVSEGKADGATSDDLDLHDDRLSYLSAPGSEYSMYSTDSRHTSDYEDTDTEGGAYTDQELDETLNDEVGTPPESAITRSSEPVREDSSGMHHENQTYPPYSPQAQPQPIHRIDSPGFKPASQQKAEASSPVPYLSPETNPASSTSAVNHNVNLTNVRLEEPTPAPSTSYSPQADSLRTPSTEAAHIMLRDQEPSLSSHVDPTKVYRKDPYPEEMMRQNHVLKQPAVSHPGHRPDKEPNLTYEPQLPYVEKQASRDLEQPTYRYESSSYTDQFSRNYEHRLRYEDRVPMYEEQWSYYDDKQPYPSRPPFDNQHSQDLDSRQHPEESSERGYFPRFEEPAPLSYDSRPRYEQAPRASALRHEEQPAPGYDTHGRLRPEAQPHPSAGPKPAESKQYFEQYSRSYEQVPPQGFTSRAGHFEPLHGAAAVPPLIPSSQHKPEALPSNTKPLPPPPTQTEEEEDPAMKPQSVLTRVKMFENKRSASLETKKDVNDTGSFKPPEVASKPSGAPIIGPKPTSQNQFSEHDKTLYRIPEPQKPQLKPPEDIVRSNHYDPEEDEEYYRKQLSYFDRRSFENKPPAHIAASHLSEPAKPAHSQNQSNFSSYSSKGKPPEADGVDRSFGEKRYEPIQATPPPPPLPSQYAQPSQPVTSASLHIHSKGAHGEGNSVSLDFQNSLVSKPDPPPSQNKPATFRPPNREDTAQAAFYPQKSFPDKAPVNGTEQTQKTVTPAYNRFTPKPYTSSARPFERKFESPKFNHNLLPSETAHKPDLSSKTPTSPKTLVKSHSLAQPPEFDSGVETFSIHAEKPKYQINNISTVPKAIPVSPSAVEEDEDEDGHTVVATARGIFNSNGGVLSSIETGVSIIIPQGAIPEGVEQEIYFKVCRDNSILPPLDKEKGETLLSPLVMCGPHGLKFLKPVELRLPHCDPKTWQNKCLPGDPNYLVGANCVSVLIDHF

T1: flag-tagged ARHGEF18 (Arhgef18-HA/FLAG, wild type) (human) (UniProt Q6ZSZ5)
T1 sequence: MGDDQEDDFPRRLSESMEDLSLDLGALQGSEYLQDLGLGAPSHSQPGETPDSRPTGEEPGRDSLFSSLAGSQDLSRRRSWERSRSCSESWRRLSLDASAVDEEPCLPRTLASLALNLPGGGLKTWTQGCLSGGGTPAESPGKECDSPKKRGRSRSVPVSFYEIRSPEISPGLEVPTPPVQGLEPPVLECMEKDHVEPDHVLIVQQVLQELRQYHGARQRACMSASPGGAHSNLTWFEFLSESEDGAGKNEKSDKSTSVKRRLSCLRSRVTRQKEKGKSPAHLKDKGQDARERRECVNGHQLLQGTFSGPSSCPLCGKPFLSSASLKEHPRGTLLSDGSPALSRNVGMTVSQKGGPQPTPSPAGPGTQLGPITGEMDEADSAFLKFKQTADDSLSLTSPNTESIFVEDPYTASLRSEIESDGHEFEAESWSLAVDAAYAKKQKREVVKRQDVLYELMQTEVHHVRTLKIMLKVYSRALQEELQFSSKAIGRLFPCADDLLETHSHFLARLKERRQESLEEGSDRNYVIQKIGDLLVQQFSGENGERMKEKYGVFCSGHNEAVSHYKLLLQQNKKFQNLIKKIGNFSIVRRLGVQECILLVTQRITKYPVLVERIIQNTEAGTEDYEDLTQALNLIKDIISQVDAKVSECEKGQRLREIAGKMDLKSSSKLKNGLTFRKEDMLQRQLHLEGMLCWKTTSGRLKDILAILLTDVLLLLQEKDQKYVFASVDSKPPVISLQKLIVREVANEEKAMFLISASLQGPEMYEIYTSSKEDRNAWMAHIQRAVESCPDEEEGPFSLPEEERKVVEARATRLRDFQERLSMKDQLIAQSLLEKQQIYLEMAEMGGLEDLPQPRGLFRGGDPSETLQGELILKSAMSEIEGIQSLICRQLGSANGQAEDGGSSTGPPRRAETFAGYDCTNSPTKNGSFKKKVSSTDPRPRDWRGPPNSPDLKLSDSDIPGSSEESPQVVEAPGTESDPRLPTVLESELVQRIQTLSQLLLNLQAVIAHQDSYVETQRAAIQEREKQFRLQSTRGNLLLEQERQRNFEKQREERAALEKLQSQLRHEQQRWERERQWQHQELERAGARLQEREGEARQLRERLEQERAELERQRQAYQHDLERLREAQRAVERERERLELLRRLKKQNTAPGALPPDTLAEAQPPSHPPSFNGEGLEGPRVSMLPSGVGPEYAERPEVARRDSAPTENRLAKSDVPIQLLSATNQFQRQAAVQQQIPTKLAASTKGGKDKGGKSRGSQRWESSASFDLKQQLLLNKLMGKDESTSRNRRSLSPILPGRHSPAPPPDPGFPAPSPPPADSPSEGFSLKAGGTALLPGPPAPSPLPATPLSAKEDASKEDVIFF

T2: VE-cadherin (endogenous, HUVEC) (human (endogenous in HUVEC)), P33151
T2 chain: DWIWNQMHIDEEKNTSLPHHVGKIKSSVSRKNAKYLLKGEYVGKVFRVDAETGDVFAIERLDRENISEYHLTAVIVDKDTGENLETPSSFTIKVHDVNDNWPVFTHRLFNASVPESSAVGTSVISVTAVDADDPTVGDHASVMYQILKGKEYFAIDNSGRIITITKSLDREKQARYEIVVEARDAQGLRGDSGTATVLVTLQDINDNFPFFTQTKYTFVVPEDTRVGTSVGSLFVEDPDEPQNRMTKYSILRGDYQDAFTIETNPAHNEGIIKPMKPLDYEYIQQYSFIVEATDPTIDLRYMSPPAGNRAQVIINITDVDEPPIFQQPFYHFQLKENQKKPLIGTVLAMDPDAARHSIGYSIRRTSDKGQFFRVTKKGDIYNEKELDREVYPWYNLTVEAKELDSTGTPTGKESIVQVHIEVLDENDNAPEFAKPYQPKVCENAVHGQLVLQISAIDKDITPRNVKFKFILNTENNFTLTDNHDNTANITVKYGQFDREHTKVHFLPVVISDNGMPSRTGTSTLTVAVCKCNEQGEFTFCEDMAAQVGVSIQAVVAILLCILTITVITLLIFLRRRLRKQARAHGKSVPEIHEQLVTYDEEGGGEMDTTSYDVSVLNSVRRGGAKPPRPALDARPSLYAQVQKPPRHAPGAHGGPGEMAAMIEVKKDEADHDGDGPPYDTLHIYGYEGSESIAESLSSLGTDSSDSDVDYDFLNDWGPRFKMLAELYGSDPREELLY


Assays:
[1] = target: T1, flag-tagged ARHGEF18 (Arhgef18-HA/FLAG, wild type) (human); assay: co-IP
[2] = target: T2, VE-cadherin (endogenous, HUVEC) (human …); assay: co-IP; details: remark: other sources report otherwise
[3] = target: GST-RhoA^G17A (nucleotide-free RhoA mutant) (UniProt P61586); assay: pull-down

Molecule	binding [3]	further results
ZO-1 (endogenous, HUVEC) (from UniProt Q07157 1-1748)	–	binding [1]: binds
β-catenin (endogenous, HUVEC), P35222 1-781 (protein) MATQADLMELDMAMEPDRKAAVSHWQQQSYLDSGIHSGATTTAPSLSGKGNPEEEDVDTSQVLYEWEQGFSQSFTQEQVADIDGQYAMTRAQRVRAAMFPETLDEGMQIPSTQFDAAHPTNVQRLAEPSQMLKHAVVNLINYQDDAELATRAIPELTKLLNDEDQVVVNKAAVMVHQLSKKEASRHAIMRSPQMVSAIVRTMQNTNDVETARCTAGTLHNLSHHREGLLAIFKSGGIPALVKMLGSPVDSVLFYAITTLHNLLLHQEGAKMAVRLAGGLQKMVALLNKTNVKFLAITTDCLQILAYGNQESKLIILASGGPQALVNIMRTYTYEKLLWTTSRVLKVLSVCSSNKPAIVEAGGMQALGLHLTDPSQRLVQNCLWTLRNLSDAATKQEGMEGLLGTLVQLLGSDDINVVTCAAGILSNLTCNNYKNKMMVCQVGGIEALVRTVLRAGDREDITEPAICALRHLTSRHQEAEMAQNAVRLHYGLPVVVKLLHPPSHWPLIKATVGLIRNLALCPANHAPLREQGAIPRLVQLLVRAHQDTQRRTSMGGTQQQFVEGVRMEEIVEGCTGALHILARDVHNRIVIRGLNTIPLFVQLLYSPIENIQRVAAGVLCELAQDKEAAEAIEAEGATAPLTELLHSRNEGVATYAAAVLFRMSEDKPQDYKKRLSVELTSSLFRTEPMAWNETADLGLDIGAQGEPLGYRQDDPSYRSFHSGGYGQDALGMDPMMEHEMGGHHPGADYPVDGLPDLGHAQDLMDGLPPGDSNQLAWFDTDL	–	binding [2]: binds
WT-ARHGEF18 (exogenous wild type used in the RHOA^G17A pull-down) (protein, UniProt Q6ZSZ5-4 1-1361) MGDDQEDDFPRRLSESMEDLSLDLGALQGSEYLQDLGLGAPSHSQPGETPDSRPTGEEPGRDSLFSSLAGSQDLSRRRSWERSRSCSESWRRLSLDASAVDEEPCLPRTLASLALNLPGGGLKTWTQGCLSGGGTPAESPGKECDSPKKRGRSRSVPVSFYEIRSPEISPGLEVPTPPVQGLEPPVLECMEKDHVEPDHVLIVQQVLQELRQYHGARQRACMSASPGGAHSNLTWFEFLSESEDGAGKNEKSDKSTSVKRRLSCLRSRVTRQKEKGKSPAHLKDKGQDARERRECVNGHQLLQGTFSGPSSCPLCGKPFLSSASLKEHPRGTLLSDGSPALSRNVGMTVSQKGGPQPTPSPAGPGTQLGPITGEMDEADSAFLKFKQTADDSLSLTSPNTESIFVEDPYTASLRSEIESDGHEFEAESWSLAVDAAYAKKQKREVVKRQDVLYELMQTEVHHVRTLKIMLKVYSRALQEELQFSSKAIGRLFPCADDLLETHSHFLARLKERRQESLEEGSDRNYVIQKIGDLLVQQFSGENGERMKEKYGVFCSGHNEAVSHYKLLLQQNKKFQNLIKKIGNFSIVRRLGVQECILLVTQRITKYPVLVERIIQNTEAGTEDYEDLTQALNLIKDIISQVDAKVSECEKGQRLREIAGKMDLKSSSKLKNGLTFRKEDMLQRQLHLEGMLCWKTTSGRLKDILAILLTDVLLLLQEKDQKYVFASVDSKPPVISLQKLIVREVANEEKAMFLISASLQGPEMYEIYTSSKEDRNAWMAHIQRAVESCPDEEEGPFSLPEEERKVVEARATRLRDFQERLSMKDQLIAQSLLEKQQIYLEMAEMGGLEDLPQPRGLFRGGDPSETLQGELILKSAMSEIEGIQSLICRQLGSANGQAEDGGSSTGPPRRAETFAGYDCTNSPTKNGSFKKKVSSTDPRPRDWRGPPNSPDLKLSDSDIPGSSEESPQVVEAPGTESDPRLPTVLESELVQRIQTLSQLLLNLQAVIAHQDSYVETQRAAIQEREKQFRLQSTRGNLLLEQERQRNFEKQREERAALEKLQSQLRHEQQRWERERQWQHQELERAGARLQEREGEARQLRERLEQERAELERQRQAYQHDLERLREAQRAVERERERLELLRRLKKQNTAPGALPPDTLAEAQPPSHPPSFNGEGLEGPRVSMLPSGVGPEYAERPEVARRDSAPTENRLAKSDVPIQLLSATNQFQRQAAVQQQIPTKLAASTKGGKDKGGKSRGSQRWESSASFDLKQQLLLNKLMGKDESTSRNRRSLSPILPGRHSPAPPPDPGFPAPSPPPADSPSEGFSLKAGGTALLPGPPAPSPLPATPLSAKEDASKEDVIFF	binds	–
ARHGEF18^Y606A (Arhgef18-HA/FLAG_shArhgef18.6, GEF mutant) (protein, UniProt Q6ZSZ5-4 1-1361) MGDDQEDDFPRRLSESMEDLSLDLGALQGSEYLQDLGLGAPSHSQPGETPDSRPTGEEPGRDSLFSSLAGSQDLSRRRSWERSRSCSESWRRLSLDASAVDEEPCLPRTLASLALNLPGGGLKTWTQGCLSGGGTPAESPGKECDSPKKRGRSRSVPVSFYEIRSPEISPGLEVPTPPVQGLEPPVLECMEKDHVEPDHVLIVQQVLQELRQYHGARQRACMSASPGGAHSNLTWFEFLSESEDGAGKNEKSDKSTSVKRRLSCLRSRVTRQKEKGKSPAHLKDKGQDARERRECVNGHQLLQGTFSGPSSCPLCGKPFLSSASLKEHPRGTLLSDGSPALSRNVGMTVSQKGGPQPTPSPAGPGTQLGPITGEMDEADSAFLKFKQTADDSLSLTSPNTESIFVEDPYTASLRSEIESDGHEFEAESWSLAVDAAYAKKQKREVVKRQDVLYELMQTEVHHVRTLKIMLKVYSRALQEELQFSSKAIGRLFPCADDLLETHSHFLARLKERRQESLEEGSDRNYVIQKIGDLLVQQFSGENGERMKEKYGVFCSGHNEAVSHYKLLLQQNKKFQNLIKKIGNFSIVRRLGVQECILLVTQRITKAPVLVERIIQNTEAGTEDYEDLTQALNLIKDIISQVDAKVSECEKGQRLREIAGKMDLKSSSKLKNGLTFRKEDMLQRQLHLEGMLCWKTTSGRLKDILAILLTDVLLLLQEKDQKYVFASVDSKPPVISLQKLIVREVANEEKAMFLISASLQGPEMYEIYTSSKEDRNAWMAHIQRAVESCPDEEEGPFSLPEEERKVVEARATRLRDFQERLSMKDQLIAQSLLEKQQIYLEMAEMGGLEDLPQPRGLFRGGDPSETLQGELILKSAMSEIEGIQSLICRQLGSANGQAEDGGSSTGPPRRAETFAGYDCTNSPTKNGSFKKKVSSTDPRPRDWRGPPNSPDLKLSDSDIPGSSEESPQVVEAPGTESDPRLPTVLESELVQRIQTLSQLLLNLQAVIAHQDSYVETQRAAIQEREKQFRLQSTRGNLLLEQERQRNFEKQREERAALEKLQSQLRHEQQRWERERQWQHQELERAGARLQEREGEARQLRERLEQERAELERQRQAYQHDLERLREAQRAVERERERLELLRRLKKQNTAPGALPPDTLAEAQPPSHPPSFNGEGLEGPRVSMLPSGVGPEYAERPEVARRDSAPTENRLAKSDVPIQLLSATNQFQRQAAVQQQIPTKLAASTKGGKDKGGKSRGSQRWESSASFDLKQQLLLNKLMGKDESTSRNRRSLSPILPGRHSPAPPPDPGFPAPSPPPADSPSEGFSLKAGGTALLPGPPAPSPLPATPLSAKEDASKEDVIFF	no binding	–
